The values that follow come from patent US12728134B2, “Liquisolid pharmaceutical formulation and process for manufacturing” (RHEINISCHE FRIEDRICH-WILHELMS-UNIVERSITÄT BONN, priority 2020, dated 2026).

The series in a line: Biphasic dissolution test (BiPHa+). Format: in vitro ADME. As to conditions: same in vitro biphasic dissolution conditions, in words. The text has this:
This approach was chosen to simulate the gastrointestinal properties to obtain in vivo predictive results.
The transition to the organic phase can be understood as absorption of active substances into the blood.
To simulate the gastrointestinal properties to obtain in vivo predictive results, the pH-profile, bile salt concentration and gastrointestinal passage time were adjusted in the aqueous phase to mimic human gut conditions. An organic phase of 1-decanol above the aqueous phase imitated the fraction absorbed from the gut. As a test model, the profile of a person without prior food intake was chosen. Therefore, FaSSIF-V2 medium, which represents the bile salts concentration of a fasted human was used. […] To generate an in-situ biorelevant aqueous medium for the fasted state, biorelevant surfactants, namely sodium-taurocholate (3 mM) and lecithin (0.2 mM), were added.
Prior to the start of the experiments, both phases, 1-decanol and the acidic aqueous phase, were saturated with each other. First, the respective formulation was added (Table 2) to 50 mL HCl (0.1 M), simulating the stomach. During the first 30 min the formulation disintegrated/dispersed in 50 ml of 0.1 M HCl. […]

Regarding `COc1ccc2cc([C@H](C)C(=O)O)ccc2c1` [Naproxen], the “result of propylene carbonate formulation compared to commercially available market formulation” value is recorded as “even better results”.
